This is an account of results in article PMC11455670.

Protein sequences, listed by entry. Tags and fused reporters are not part of them. Residues count along the entry.
UniProt Q5JRA6, residues 23-1907: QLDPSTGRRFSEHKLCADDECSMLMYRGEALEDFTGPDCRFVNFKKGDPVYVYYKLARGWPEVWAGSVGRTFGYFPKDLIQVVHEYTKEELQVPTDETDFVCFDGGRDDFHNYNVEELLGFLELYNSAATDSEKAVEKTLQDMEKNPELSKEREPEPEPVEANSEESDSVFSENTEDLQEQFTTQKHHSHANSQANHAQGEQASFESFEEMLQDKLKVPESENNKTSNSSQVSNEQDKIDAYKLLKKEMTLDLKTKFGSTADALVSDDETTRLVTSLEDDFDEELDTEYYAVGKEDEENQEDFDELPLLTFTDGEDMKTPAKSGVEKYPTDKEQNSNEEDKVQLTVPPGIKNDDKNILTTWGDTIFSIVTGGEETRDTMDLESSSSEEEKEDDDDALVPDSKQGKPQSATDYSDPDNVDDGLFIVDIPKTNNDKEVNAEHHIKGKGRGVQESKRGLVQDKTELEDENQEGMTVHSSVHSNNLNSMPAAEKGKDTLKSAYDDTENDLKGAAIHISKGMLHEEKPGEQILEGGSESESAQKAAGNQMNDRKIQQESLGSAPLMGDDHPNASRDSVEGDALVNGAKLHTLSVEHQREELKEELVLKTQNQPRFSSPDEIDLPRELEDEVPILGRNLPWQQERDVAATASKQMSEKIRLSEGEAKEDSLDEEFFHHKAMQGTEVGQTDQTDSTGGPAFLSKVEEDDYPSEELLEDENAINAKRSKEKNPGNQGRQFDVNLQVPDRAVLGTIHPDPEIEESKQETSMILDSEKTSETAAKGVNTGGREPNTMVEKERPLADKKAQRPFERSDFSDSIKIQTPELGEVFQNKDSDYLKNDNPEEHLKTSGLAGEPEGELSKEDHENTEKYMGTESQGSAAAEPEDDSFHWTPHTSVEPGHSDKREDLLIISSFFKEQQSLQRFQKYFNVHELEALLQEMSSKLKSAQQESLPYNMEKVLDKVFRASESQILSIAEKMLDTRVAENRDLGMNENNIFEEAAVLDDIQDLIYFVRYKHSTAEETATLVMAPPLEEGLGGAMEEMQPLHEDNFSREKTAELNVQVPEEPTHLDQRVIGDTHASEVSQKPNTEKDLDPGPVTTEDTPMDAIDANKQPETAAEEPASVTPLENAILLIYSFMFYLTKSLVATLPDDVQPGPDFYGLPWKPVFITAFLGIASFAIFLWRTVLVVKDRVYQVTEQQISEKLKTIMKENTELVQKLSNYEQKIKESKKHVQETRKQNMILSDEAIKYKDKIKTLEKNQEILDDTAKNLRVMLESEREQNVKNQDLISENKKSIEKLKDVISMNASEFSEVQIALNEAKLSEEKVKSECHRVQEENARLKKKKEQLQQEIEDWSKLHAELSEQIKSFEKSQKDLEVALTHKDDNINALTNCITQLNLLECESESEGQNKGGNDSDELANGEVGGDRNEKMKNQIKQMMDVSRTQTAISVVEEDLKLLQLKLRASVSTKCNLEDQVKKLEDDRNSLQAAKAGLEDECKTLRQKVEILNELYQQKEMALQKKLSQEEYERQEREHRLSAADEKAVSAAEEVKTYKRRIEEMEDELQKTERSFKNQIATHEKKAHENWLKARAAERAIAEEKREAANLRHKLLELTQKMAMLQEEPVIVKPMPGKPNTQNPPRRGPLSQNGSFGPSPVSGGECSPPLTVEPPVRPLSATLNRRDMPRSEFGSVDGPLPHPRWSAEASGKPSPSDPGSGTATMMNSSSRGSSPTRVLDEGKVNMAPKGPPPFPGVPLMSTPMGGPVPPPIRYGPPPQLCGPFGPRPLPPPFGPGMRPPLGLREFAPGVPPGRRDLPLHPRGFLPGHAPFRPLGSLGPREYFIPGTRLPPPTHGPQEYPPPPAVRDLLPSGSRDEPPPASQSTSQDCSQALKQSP

No constants are given. Whether binding was seen depends on the method and setting. Binding seen in cells or lysates may run through a third protein. Some results given as binding are weak or reduced against the parent protein; the word gives no strength.

The target in test [1] is Melanoma inhibition active protein 3 (MIA3) (human (in human hepatoma cell lines; the line used is not named)) (UniProt Q5JRA6). As to the kind of experiment: pull-down; named only in the legend of Fig. 6G ('COIP and pull down experiments'); no method given.
Test [2] has the same target. The test is described as follows: co-IP; cells lysed in RIPA buffer at 4 °C, pre-cleared with immunoglobulin beads; anti-IgG, anti-MIA3 or anti-CHAC1 antibody overnight at 4 °C, protein A/G beads 4 h, Western blot; cell line not stated.

B1: Glutathione-specific γ-glutamyl cyclotransferase 1 (CHAC1) (protein, UniProt Q9BUX1 1-222)
chain: MKQESAAPNTPPTSQSPTPSAQFPRNDGDPQALWIFGYGSLVWRPDFAYSDSRVGFVRGYSRRFWQGDTFHRGSDKMPGRVVTLLEDHEGCTWGVAYQVQGEQVSKALKYLNVREAVLGGYDTKEVTFYPQDAPDQPLKALAYVATPQNPGYLGPAPEEAIATQILACRGFSGHNLEYLLRLADFMQLCGPQAQDEHLAAIVDAVGTMLPCFCPTEQALALV
Regarding B1, the binding entry in test [1] and in test [2] was “binds” throughout.
